The values below come from the supplement of paper PMC6411743.

The chains behind the UniProt entries cited, without tags or fusion partners. Where a name states a change or a piece, a line headed by the entry shows the natural chain unless it says otherwise.
UniProt Q15427: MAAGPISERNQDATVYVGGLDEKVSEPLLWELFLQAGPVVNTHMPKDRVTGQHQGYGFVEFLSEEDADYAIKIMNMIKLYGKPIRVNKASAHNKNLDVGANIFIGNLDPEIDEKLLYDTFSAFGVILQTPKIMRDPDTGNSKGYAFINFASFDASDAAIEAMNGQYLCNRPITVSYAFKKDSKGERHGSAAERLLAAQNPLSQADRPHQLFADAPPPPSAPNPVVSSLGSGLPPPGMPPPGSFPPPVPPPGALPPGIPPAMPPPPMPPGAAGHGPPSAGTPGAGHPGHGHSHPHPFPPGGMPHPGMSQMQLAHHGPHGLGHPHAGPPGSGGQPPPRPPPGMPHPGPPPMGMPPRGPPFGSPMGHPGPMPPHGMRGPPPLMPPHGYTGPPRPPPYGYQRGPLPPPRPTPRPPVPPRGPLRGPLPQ
UniProt Q16222: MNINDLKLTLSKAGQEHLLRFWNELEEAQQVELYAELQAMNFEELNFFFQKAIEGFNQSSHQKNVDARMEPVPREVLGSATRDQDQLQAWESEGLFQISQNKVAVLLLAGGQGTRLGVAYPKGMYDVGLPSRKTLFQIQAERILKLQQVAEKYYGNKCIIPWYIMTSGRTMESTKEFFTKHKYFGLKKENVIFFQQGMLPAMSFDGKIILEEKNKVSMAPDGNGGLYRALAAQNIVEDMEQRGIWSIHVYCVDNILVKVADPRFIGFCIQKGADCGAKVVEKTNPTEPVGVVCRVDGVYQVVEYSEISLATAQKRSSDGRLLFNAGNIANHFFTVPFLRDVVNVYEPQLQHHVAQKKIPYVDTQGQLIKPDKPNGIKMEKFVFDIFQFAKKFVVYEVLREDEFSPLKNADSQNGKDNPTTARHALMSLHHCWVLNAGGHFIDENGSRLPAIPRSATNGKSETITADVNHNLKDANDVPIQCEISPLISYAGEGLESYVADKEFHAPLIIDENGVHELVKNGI
UniProt Q15596: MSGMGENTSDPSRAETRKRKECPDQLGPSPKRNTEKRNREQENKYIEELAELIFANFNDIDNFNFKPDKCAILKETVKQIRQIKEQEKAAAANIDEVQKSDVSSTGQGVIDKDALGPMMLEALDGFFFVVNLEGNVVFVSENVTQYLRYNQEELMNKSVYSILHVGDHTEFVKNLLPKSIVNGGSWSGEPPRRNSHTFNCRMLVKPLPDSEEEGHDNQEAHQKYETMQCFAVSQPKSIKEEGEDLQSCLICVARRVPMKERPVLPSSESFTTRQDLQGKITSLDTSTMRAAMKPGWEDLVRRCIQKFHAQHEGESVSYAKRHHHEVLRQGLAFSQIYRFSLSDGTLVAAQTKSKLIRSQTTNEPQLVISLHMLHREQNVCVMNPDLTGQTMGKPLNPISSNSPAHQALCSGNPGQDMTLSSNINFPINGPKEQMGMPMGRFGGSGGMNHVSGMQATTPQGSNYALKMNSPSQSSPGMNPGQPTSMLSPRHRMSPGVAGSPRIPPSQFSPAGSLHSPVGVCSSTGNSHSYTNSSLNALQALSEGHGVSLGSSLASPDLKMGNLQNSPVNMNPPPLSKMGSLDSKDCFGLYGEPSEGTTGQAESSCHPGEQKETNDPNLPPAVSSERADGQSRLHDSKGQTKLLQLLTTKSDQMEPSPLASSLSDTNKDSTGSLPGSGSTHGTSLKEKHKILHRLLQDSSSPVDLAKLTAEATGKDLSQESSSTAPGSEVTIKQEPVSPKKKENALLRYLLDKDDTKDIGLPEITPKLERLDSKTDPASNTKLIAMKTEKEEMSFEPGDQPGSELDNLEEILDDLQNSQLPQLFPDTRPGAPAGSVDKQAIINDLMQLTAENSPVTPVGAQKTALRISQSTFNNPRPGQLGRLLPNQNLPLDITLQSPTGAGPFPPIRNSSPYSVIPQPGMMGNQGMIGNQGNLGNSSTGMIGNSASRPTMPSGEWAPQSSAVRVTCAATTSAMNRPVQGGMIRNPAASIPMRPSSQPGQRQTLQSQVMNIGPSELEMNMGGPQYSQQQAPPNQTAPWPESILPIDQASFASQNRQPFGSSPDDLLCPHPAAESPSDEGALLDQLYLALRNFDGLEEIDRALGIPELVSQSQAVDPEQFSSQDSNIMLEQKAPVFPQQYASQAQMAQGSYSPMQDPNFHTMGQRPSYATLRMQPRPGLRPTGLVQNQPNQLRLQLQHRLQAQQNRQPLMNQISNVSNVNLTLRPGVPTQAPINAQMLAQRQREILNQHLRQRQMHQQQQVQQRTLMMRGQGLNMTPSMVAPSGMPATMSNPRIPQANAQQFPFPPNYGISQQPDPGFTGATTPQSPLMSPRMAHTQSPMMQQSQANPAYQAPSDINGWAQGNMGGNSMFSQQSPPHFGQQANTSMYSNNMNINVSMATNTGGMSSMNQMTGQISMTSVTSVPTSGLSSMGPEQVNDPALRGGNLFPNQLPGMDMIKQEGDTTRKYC
UniProt Q16851: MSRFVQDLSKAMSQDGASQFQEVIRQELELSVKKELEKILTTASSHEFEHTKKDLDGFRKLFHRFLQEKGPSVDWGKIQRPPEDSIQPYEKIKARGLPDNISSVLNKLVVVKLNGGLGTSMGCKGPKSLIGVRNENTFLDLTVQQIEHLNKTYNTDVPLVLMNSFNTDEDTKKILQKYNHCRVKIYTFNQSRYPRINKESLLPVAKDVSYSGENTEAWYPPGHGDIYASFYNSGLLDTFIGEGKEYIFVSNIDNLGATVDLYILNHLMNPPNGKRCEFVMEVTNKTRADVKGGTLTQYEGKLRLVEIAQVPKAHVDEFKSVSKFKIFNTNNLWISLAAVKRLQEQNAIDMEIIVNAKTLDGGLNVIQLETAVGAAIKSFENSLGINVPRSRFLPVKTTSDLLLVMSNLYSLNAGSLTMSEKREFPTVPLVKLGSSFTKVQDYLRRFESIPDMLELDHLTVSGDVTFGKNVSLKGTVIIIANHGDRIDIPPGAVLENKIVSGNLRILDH
UniProt Q16531, whole entry: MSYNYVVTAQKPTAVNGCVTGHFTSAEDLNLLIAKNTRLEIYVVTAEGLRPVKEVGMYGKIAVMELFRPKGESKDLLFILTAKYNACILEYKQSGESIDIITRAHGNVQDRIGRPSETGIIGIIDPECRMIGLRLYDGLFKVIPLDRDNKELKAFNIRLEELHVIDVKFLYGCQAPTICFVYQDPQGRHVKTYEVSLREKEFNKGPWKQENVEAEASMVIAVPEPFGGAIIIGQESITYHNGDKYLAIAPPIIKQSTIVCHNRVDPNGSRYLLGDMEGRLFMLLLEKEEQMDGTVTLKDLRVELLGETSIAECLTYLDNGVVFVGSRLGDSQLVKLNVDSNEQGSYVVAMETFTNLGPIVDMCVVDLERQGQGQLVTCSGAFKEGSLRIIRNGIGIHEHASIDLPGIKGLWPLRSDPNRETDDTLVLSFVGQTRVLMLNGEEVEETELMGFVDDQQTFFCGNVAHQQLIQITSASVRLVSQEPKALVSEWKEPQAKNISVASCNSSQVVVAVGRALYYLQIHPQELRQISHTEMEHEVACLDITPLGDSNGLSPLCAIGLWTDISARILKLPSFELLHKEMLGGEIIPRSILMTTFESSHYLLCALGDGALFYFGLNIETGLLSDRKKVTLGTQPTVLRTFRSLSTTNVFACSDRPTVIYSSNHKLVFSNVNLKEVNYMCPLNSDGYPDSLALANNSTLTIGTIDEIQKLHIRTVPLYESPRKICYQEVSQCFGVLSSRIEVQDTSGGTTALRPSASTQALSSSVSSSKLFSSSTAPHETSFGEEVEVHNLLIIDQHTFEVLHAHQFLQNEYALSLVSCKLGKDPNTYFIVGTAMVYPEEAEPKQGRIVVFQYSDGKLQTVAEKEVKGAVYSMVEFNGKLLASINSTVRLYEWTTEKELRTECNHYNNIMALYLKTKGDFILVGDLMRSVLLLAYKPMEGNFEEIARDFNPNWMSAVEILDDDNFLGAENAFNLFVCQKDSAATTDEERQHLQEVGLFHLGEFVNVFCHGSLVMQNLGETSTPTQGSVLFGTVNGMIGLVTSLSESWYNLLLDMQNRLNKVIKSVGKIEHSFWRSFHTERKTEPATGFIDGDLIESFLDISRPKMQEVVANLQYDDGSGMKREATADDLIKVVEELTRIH
UniProt Q5HYK3: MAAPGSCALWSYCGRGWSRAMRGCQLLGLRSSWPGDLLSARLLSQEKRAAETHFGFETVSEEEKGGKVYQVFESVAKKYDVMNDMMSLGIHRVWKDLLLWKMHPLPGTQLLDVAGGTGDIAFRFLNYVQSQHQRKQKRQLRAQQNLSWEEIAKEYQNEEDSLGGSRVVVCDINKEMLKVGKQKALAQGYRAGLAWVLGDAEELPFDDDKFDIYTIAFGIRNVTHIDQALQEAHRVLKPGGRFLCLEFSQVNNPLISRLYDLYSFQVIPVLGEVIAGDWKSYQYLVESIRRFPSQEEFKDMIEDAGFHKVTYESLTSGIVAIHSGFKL
UniProt Q5T440: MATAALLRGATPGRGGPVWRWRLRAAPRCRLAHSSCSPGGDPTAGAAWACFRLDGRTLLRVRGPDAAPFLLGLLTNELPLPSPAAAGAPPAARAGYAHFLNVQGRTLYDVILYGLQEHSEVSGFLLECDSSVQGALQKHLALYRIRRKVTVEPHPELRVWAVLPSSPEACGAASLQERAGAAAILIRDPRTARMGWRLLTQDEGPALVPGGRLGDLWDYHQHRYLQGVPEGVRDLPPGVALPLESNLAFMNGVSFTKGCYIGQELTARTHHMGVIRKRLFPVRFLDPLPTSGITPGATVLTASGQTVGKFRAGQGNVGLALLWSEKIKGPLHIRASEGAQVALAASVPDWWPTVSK
UniProt Q15311: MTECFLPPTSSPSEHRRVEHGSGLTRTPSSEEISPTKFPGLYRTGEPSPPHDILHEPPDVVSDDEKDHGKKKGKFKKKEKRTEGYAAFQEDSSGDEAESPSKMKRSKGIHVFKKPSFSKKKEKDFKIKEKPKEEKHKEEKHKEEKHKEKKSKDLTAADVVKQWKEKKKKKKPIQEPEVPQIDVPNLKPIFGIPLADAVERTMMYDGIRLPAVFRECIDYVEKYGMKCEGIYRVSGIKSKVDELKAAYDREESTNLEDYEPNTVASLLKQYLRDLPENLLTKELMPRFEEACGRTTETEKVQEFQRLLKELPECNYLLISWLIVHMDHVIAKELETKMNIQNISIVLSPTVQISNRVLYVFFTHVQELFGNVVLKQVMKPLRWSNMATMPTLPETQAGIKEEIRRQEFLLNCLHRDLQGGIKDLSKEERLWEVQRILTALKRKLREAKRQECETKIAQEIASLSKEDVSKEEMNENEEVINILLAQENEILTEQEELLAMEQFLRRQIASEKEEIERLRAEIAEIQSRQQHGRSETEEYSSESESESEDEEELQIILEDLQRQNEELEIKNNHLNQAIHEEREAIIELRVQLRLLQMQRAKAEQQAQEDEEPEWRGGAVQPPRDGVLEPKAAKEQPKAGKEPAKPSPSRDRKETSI
UniProt Q58FG1, whole entry: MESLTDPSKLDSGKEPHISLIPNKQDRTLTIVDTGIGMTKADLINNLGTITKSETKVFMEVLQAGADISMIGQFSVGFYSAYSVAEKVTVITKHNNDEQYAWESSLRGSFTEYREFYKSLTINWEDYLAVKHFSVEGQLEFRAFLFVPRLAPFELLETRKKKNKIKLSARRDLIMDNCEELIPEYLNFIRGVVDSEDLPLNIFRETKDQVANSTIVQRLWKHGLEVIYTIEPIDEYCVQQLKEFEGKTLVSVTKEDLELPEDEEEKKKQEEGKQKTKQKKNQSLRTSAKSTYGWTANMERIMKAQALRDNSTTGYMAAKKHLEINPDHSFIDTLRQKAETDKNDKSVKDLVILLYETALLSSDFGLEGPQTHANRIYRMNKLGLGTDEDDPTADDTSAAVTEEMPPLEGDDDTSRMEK
UniProt Q5T6V5: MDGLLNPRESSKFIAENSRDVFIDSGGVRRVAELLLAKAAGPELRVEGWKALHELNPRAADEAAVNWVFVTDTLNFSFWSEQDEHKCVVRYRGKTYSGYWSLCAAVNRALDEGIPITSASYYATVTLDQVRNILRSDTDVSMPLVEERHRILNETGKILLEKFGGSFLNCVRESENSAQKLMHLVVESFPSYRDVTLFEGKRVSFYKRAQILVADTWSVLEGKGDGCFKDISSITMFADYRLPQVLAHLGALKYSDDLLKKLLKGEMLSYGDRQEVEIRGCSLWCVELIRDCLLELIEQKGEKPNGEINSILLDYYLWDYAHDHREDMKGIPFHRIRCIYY
UniProt Q15717, whole entry: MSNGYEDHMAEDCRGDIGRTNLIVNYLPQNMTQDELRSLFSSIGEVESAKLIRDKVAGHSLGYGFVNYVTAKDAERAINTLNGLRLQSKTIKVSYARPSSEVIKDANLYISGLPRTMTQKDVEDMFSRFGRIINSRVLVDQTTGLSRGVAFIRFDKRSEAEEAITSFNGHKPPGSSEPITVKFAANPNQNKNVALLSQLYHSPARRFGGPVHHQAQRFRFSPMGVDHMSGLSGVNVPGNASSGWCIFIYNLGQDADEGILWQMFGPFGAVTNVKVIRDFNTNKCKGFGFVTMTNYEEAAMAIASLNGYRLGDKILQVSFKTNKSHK

Compound in the assay: Nc1ncnc2c1ncn2[C@@H]1O[C@H](COP(=O)(O)OP(=O)(O)NP(=O)(O)O)[C@@H](O)[C@H]1O [adenylyl imidodiphosphate]
The assay can be described thus: NP40-soluble protein abundance relative to vehicle (solubility fold change) (ratio); higher = more soluble protein in presence of AMP-PNP. The procedure, abridged:
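Each value is a fold change relative to the detergent-processed vehicle, calculated per replicate from vsn-normalised intensities. Jurkat crude lysate received eight concentrations (0.1 to 10 mM) for 10 min at room temperature and 3 min at 37 °C, then was solubilised in 0.8% NP40 with benzonase (60 min, 4 °C). The ultracentrifuged supernatant was TMT-labelled and run by LC-MS/MS in three independent experiments.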

± gives the standard deviation of the averaged measurements. Only a part is listed here, and it is no random draw. Most entries show no effect beyond the scatter of the controls.

Turning to SF3B4 (UniProt Q15427), the NP40-soluble protein abundance by setting is: (concentration: 0.1mM) 1.03 ± 0.057; (concentration: 0.5mM) 0.994 ± 0.028.
The corresponding values for “Q5QPA5 and related entries (UniProt Q9NVS2)” are 1.04 ± 0.032 and 1.03 ± 0.052.
The like results for UniProt Q16222 and related entries were, in that order, 1.01 ± 0.042 and 0.992 ± 0.043.
With UniProt Q32MZ4 and related entries, the NP40-soluble protein abundance came out at 0.979 ± 0.021 (concentration: 0.1mM) and 1.01 ± 0.044 (concentration: 0.5mM).
The like results for UniProt Q4KMQ2 and related entries were, in that order, 0.986 ± 0.036 and 0.9866 ± 0.0064.
For CCDC6 (UniProt Q16204), the NP40-soluble protein abundance reads like this: (concentration: 0.1mM) 0.977 ± 0.011; (concentration: 0.5mM) 1.01 ± 0.051.
The corresponding values for “Q5TBM3 and related entries (UniProt Q92598)” are 0.978 ± 0.023 and 1.02 ± 0.052.
Take UniProt Q15596 and related entries: the NP40-soluble protein abundance was 1.01 ± 0.053 (concentration: 0.1mM) and 0.98 ± 0.051 (concentration: 0.5mM).
For UniProt Q5JS54 and related entries, the NP40-soluble protein abundance reads like this: (concentration: 0.1mM) 0.9903 ± 0.0047; (concentration: 0.5mM) 0.992 ± 0.041.
On to UniProt Q16851 and related entries, for which the NP40-soluble protein abundance (concentration: 0.1mM) was found to be 1.02 ± 0.03 and the NP40-soluble protein abundance (concentration: 0.5mM) worked out at 1 ± 0.053.
The corresponding values for UniProt Q16531 and related entries are 1.02 ± 0.048 and 0.985 ± 0.11.
The like results for UniProt Q4G148 and related entries were, in that order, 1 ± 0.023 and 1.01 ± 0.025.
For the target UniProt Q5HYK3 and related entries, the NP40-soluble protein abundance amounted to 0.976 ± 0.025 (concentration: 0.1mM) and 0.969 ± 0.027 (concentration: 0.5mM).
As for UniProt Q5T440, the NP40-soluble protein abundance is, setting by setting: (concentration: 0.1mM) 1.04 ± 0.034; (concentration: 0.5mM) 0.992 ± 0.056.
The corresponding values for UniProt Q16514-2|Q16514 are 1.01 ± 0.024 and 1.03 ± 0.064.
The like results for RALBP1 (UniProt Q15311) were, in that order, 0.99 ± 0.033 and 0.97 ± 0.015.
The corresponding values for UniProt Q5JTH9 and related entries are 1.01 ± 0.027 and 1.01 ± 0.023.
Consider HSP90AA4P (UniProt Q58FG1), for which the NP40-soluble protein abundance was 0.936 ± 0.034 (concentration: 0.1mM) and 0.856 ± 0.029 (concentration: 0.5mM).
The corresponding values for C9orf64 (UniProt Q5T6V5) are 1.05 ± 0.058 and 0.979 ± 0.074.
With UniProt Q5TC82 and related entries, the NP40-soluble protein abundance is, setting by setting: (concentration: 0.1mM) 1.01 ± 0.027; (concentration: 0.5mM) 1 ± 0.02.
As to ELAVL1 (UniProt Q15717), the NP40-soluble protein abundance (concentration: 0.1mM) was determined as 0.999 ± 0.021 and the NP40-soluble protein abundance (concentration: 0.5mM) came to 0.997 ± 0.022.
The like results for UniProt Q3B7T1 and related entries were, in that order, 1.01 ± 0.019 and 0.978 ± 0.045.
